Results: the supplement of paper PMC8728848
Some of the results follow.

Experiments:
Test in all cases: glycan array binding signal (z-score within array); higher = stronger binding
Conditions in all cases: glycan notation: IUPAC condensed, linker removed
[1] = target: Fuc(a1-2)[Gal(a1-3)]Gal(b1-4)GlcNAc(b1-2)Man(a1-3)[Fuc(a1-2)[Gal(a1-3)]Gal(b1-4)GlcNAc(b1-2)Man(a1-6)]Man(b1-4)GlcNAc(b1-4)GlcNAc
How it was run: (§1)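 Negative Z-scores can be read as non-binding. The Z-score is calculated within each array and then averaged across arrays of one protein sequence at different concentrations or buffers and across linkers. Arrays, 3228 in all, were curated from the Consortium for Functional Glycomics database and kept only where the protein sequence was available.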

[2] = target: Fuc(a1-2)[Gal(a1-3)]Gal(b1-4)GlcNAc(b1-2)Man(a1-3)[Fuc(a1-2)[Gal(a1-3)]Gal(b1-4)GlcNAc(b1-2)Man(a1-6)]Man(b1-4)GlcNAc(b1-4)[Fuc(a1-6)]GlcNAc
How it was run: as §1

[3] = target: Fuc(a1-2)[Gal(a1-3)]Gal(b1-4)GlcNAc(b1-3)GalNAc
How it was run: as §1

[4] = target: Fuc(a1-2)[Gal(a1-3)]Gal(b1-4)GlcNAc(b1-3)[Fuc(a1-2)[Gal(a1-3)]Gal(b1-4)GlcNAc(b1-6)]GalNAc
How it was run: as §1

[5] = target: Fuc(a1-2)[Gal(a1-3)]Gal(b1-4)GlcNAc(b1-6)GalNAc
How it was run: as §1

[6] = target: Fuc(a1-2)[Gal(a1-3)]Gal(b1-4)[Fuc(a1-3)]Glc
How it was run: as §1

[7] = target: Fuc(a1-2)[Gal(a1-3)]Gal(b1-4)[Fuc(a1-3)]GlcNAc
How it was run: as §1

[8] = target: Fuc(a1-2)[Gal(a1-3)]Gal(b1-4)[Fuc(a1-3)]GlcNAc(b1-3)GalNAc
How it was run: as §1

[9] = target: Fuc(a1-2)[Gal(a1-4)]Gal(b1-4)GlcNAc
How it was run: as §1

[10] = target: Fuc(a1-2)[GalNAc(a1-3)]Gal
How it was run: as §1

[11] = target: Fuc(a1-2)[GalNAc(a1-3)]Gal(b1-3)GalNAc(a1-3)[Fuc(a1-2)]Gal(b1-4)GlcNAc
How it was run: as §1

[12] = target: Fuc(a1-2)[GalNAc(a1-3)]Gal(b1-3)GalNAc(b1-3)Gal(a1-4)Gal(b1-4)Glc
How it was run: as §1

[13] = target: Fuc(a1-2)[GalNAc(a1-3)]Gal(b1-3)GlcNAc
How it was run: as §1

[14] = target: Fuc(a1-2)[GalNAc(a1-3)]Gal(b1-3)GlcNAc(b1-2)Man(a1-3)[Fuc(a1-2)[GalNAc(a1-3)]Gal(b1-3)GlcNAc(b1-2)Man(a1-6)]Man(b1-4)GlcNAc(b1-4)GlcNAc
How it was run: as §1

[15] = target: Fuc(a1-2)[GalNAc(a1-3)]Gal(b1-3)GlcNAc(b1-2)Man(a1-3)[Fuc(a1-2)[GalNAc(a1-3)]Gal(b1-3)GlcNAc(b1-2)Man(a1-6)]Man(b1-4)GlcNAc(b1-4)[Fuc(a1-6)]GlcNAc
How it was run: as §1

[16] = target: Fuc(a1-2)[GalNAc(a1-3)]Gal(b1-3)GlcNAc(b1-3)GalNAc
How it was run: as §1

[17] = target: Fuc(a1-2)[GalNAc(a1-3)]Gal(b1-3)GlcNAc(b1-6)GalNAc
How it was run: as §1

[18] = target: Fuc(a1-2)[GalNAc(a1-3)]Gal(b1-4)Glc
How it was run: as §1

[19] = target: Fuc(a1-2)[GalNAc(a1-3)]Gal(b1-4)GlcNAc
How it was run: as §1

[20] = target: Fuc(a1-2)[GalNAc(a1-3)]Gal(b1-4)GlcNAc(b1-2)Man
How it was run: as §1

[21] = target: Fuc(a1-2)[GalNAc(a1-3)]Gal(b1-4)GlcNAc(b1-2)Man(a1-3)[Fuc(a1-2)[GalNAc(a1-3)]Gal(b1-4)GlcNAc(b1-2)Man(a1-6)]Man(b1-4)GlcNAc(b1-4)GlcNAc
How it was run: as §1

[22] = target: Fuc(a1-2)[GalNAc(a1-3)]Gal(b1-4)GlcNAc(b1-2)Man(a1-3)[Fuc(a1-2)[GalNAc(a1-3)]Gal(b1-4)GlcNAc(b1-2)Man(a1-6)]Man(b1-4)GlcNAc(b1-4)[Fuc(a1-6)]GlcNAc
How it was run: as §1

[23] = target: Fuc(a1-2)[GalNAc(a1-3)]Gal(b1-4)GlcNAc(b1-3)Gal(b1-4)GlcNAc
How it was run: as §1

[24] = target: Fuc(a1-2)[GalNAc(a1-3)]Gal(b1-4)GlcNAc(b1-3)Gal(b1-4)GlcNAc(b1-3)Gal(b1-4)GlcNAc
How it was run: as §1

[25] = target: Fuc(a1-2)[GalNAc(a1-3)]Gal(b1-4)GlcNAc(b1-3)GalNAc
How it was run: as §1

[26] = target: Fuc(a1-2)[GalNAc(a1-3)]Gal(b1-4)GlcNAc(b1-3)[Fuc(a1-2)[GalNAc(a1-3)]Gal(b1-4)GlcNAc(b1-6)]GalNAc
How it was run: as §1

[27] = target: Fuc(a1-2)[GalNAc(a1-3)]Gal(b1-4)GlcNAc(b1-6)GalNAc
How it was run: as §1

[28] = target: Fuc(a1-2)[GalNAc(a1-3)]Gal(b1-4)[Fuc(a1-3)]GlcNAc
How it was run: as §1

[29] = target: Fuc(a1-2)[GalNAc(a1-3)]Gal(b1-4)[Fuc(a1-3)]GlcNAc(b1-3)GalNAc
How it was run: as §1

[30] = target: Fuc(a1-2)[GalNAc(a1-4)]Gal(b1-4)GlcNAc
How it was run: as §1

B1: MtEccB1 (Mycobacterium tuberculosis H37Rv), O69734 (protein)
chain: MGLRLTTKVQVSGWRFLLRRLEHAIVRRDTRMFDDPLQFYSRSIALGIVVAVLILAGAALLAYFKPQGKLGGTSLFTDRATNQLYVLLSGQLHPVYNLTSARLVLGNPANPATVKSSELSKLPMGQTVGIPGAPYATPVSAGSTSIWTLCDTVARADSTSPVVQTAVIAMPLEIDASIDPLQSHEAVLVSYQGETWIVTTKGRHAIDLTDRALTSSMGIPVTARPTPISEGMFNALPDMGPWQLPPIPAAGAPNSLGLPDDLVIGSVFQIHTDKGPQYYVVLPDGIAQVNATTAAALRATQAHGLVAPPAMVPSLVVRIAERVYPSPLPDEPLKIVSRPQDPALCWSWQRSAGDQSPQSTVLSGRHLPISPSAMNMGIKQIHGTATVYLDGGKFVALQSPDPRYTESMYYIDPQGVRYGVPNAETAKSLGLSSPQNAPWEIVRLLVDGPVLSKDAALLEHDTLPADPSPRKVPAGASGAP
glycan array binding signal (z-score) [1]: -0.471 | glycan array binding signal (z-score) [2]: -0.543 | glycan array binding signal (z-score) [3]: 0.69 | glycan array binding signal (z-score) [4]: 0.278 | glycan array binding signal (z-score) [5]: 1.28 | glycan array binding signal (z-score) [6]: 0.054 | glycan array binding signal (z-score) [7]: -0.345 | glycan array binding signal (z-score) [8]: 0.323 | glycan array binding signal (z-score) [9]: -1.08 | glycan array binding signal (z-score) [10]: -0.459 | glycan array binding signal (z-score) [11]: -0.886 | glycan array binding signal (z-score) [12]: -1.01 | glycan array binding signal (z-score) [13]: -0.317 | glycan array binding signal (z-score) [14]: 0.03 | glycan array binding signal (z-score) [15]: -1.25 | glycan array binding signal (z-score) [16]: 0.901 | glycan array binding signal (z-score) [17]: -1.01 | glycan array binding signal (z-score) [18]: -0.77 | glycan array binding signal (z-score) [19]: -0.665 | glycan array binding signal (z-score) [20]: -0.757 | glycan array binding signal (z-score) [21]: 0.708 | glycan array binding signal (z-score) [22]: -2.01 | glycan array binding signal (z-score) [23]: -1.03 | glycan array binding signal (z-score) [24]: -0.217 | glycan array binding signal (z-score) [25]: -0.767 | glycan array binding signal (z-score) [26]: 0.434 | glycan array binding signal (z-score) [27]: -0.301 | glycan array binding signal (z-score) [28]: -0.945 | glycan array binding signal (z-score) [29]: -0.572 | glycan array binding signal (z-score) [30]: 0.844
